From publication PMC4212580
Results are given in words; binding and its absence hold for the method and conditions named. In cells and extracts the contact can be indirect.

Sequences of proteins named here, by UniProt entry; tags and fusion partners are left off.
UniProt P60842: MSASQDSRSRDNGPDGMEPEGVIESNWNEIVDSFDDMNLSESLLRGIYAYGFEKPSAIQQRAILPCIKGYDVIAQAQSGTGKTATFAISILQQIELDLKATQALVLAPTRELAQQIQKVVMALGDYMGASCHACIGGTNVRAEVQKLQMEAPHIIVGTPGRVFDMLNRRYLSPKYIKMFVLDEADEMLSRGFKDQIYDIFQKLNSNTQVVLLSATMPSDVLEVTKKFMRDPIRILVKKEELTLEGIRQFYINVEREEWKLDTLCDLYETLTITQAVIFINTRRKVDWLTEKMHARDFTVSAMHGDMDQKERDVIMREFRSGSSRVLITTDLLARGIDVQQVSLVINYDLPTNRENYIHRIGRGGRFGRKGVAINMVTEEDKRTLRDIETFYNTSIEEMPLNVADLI
UniProt Q14240: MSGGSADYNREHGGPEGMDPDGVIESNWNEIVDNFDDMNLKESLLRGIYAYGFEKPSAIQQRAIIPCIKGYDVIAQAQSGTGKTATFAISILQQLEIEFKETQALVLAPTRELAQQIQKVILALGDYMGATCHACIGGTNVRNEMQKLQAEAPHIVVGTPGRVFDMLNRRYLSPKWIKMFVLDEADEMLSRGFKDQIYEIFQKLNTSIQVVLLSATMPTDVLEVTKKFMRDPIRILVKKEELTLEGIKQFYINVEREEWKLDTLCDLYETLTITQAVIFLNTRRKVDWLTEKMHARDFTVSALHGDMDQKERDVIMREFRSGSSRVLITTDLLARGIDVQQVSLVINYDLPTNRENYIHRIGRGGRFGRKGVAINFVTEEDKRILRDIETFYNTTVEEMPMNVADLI
UniProt P04406: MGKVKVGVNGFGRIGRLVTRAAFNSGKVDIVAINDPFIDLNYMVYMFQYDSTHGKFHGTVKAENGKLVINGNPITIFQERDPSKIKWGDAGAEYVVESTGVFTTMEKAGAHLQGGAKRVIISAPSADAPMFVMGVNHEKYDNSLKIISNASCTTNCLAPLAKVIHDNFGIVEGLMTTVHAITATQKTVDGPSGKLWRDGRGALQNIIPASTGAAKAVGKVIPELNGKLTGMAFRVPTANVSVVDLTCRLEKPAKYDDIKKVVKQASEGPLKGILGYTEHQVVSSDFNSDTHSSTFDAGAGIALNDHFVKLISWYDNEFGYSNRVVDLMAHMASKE

Tests used:
[1] = target: GFP-eIF4AI (eukaryotic translation initiation factor eIF4AI, GFP fused to the N-terminus) (human) (UniProt P60842); test: co-IP; same immunoprecipitation on anti-GFP beads from transfected 293T lysate; bound fraction read by western blot (Figure 2A) and silver-stained gel (Figure 2B)
[2] = target: GFP-eIF4AII (eukaryotic translation initiation factor eIF4AII, GFP fused to the N-terminus) (human) (UniProt Q14240); test: as above

For GAPDH (from UniProt P04406 1-335), which binding [1] is on record?
The binding was “no binding”.

What about the binding [2] of the same substance?
Its binding is “no binding”.
